Results on 17 variants are retold here after the supplement of paper PMC10382679.

Single values of this set are uncertain.

Sequences and labels used below:
B1: Rpb7; numbered along this chain (parent)
chain: MFFIKDLSLNITLHPSFFGPRMKQYLKTKLLEEVEGSCTGKFGYILCVLDYDNIDIQRGRILPTDGSAEFNVKYRAVVFKPFKGEVVDGTVVSCSQHGFEVQVGPMKVFVTKHLMPQDLTFNAGSNPPSYQSSEDVITIKSRIRVKIEGCISQVSSIHAIGSIKEDYLGAI

The variants in data set [1] derive from B1. Put plainly: log2 fold change of mutant abundance, UV-irradiated vs unirradiated; higher = more UV resistant (enriched after UV). Particulars: with Saccharomyces cerevisiae rad7Δ rad26Δ; UV dose (J/m2): 10; genetic background: rad7Δ rad26Δ rpb7Δ + plasmid RPB7 library; outgrowth: 10 cell divisions.
Data set [2] covers variants of B1. The data set is described as follows: NOISeq theta enrichment statistic, UV-irradiated vs unirradiated (dimensionless); higher = more UV resistant (enriched after UV). Particulars: with Saccharomyces cerevisiae rad7Δ rad26Δ; UV dose (J/m2): 10; genetic background: rad7Δ rad26Δ rpb7Δ + plasmid RPB7 library; outgrowth: 10 cell divisions.

Turning to MFFIKDLSLNITLHPSFFGPRMKQYLLTKLLEEVEGSCTGKFGYILCVLDYDNIDIQRGRILPTDGSAEFNVKYRAVVFKPFKGEVVDGTVVSCSQHGFEVQVGPMKVFVTKHLMPQDLTFNAGSNPPSYQSSEDVITIKSRIRVKIEGCISQVSSIHAIGSIKEDYLGAI [K27L], the “log2 fold change of mutant abundance” value in data set [1] came to 0.466. Also, in data set [2], the “NOISeq theta enrichment statistic” value stood at 0.229.

On to MFFIKDLSLNITLHPSFFGPRMKQYLKTKLLEEVEGSCTGKFGYILCVLDYDNIDIQRGRILPTDGSAEFNVKYRAVVFKPFKGEVVDGTVVSCSQHGFEVQVGPMKVFVTKHLMPQDLTFNAGSNPPSYQSSEDVITIKSRIRVKIEGTISQVSSIHAIGSIKEDYLGAI [C150T], for which, in data set [1], the “log2 fold change of mutant abundance” value was -1.47. The “NOISeq theta enrichment statistic” value in data set [2] is -0.689.

On to MFFIKDLSLNITLHPSFFGPRMKQYLKTKLLEEVEGFCTGKFGYILCVLDYDNIDIQRGRILPTDGSAEFNVKYRAVVFKPFKGEVVDGTVVSCSQHGFEVQVGPMKVFVTKHLMPQDLTFNAGSNPPSYQSSEDVITIKSRIRVKIEGCISQVSSIHAIGSIKEDYLGAI [S37F], for which, in data set [1], the “log2 fold change of mutant abundance” value was -0.0624. In addition, the “NOISeq theta enrichment statistic” value in data set [2] was -0.0345.

Regarding MFFIKDLSLNITLHPSFFGPRMKQYLKTKLLEEVEGSCTGKFGYILCVLDYDNIDIQRGRILPTDGSAEFNVKYRAVVFKPFKGEEVDGTVVSCSQHGFEVQVGPMKVFVTKHLMPQDLTFNAGSNPPSYQSSEDVITIKSRIRVKIEGCISQVSSIHAIGSIKEDYLGAI [V86E], the “log2 fold change of mutant abundance” value in data set [1] is -0.117. Besides, the “NOISeq theta enrichment statistic” value in data set [2] is -0.511.

Take MFFIKDLSLNITLHPSFFGPRMKQYLKTKLLEEVEGSCTGKFGYILCVLDYDNIDIQRGRILPTDGSAEFNVKYRAVVFKPFKGEVVDGTVVSCSQHGFEVQVGPMKVFVTKHLMPQDLTFNAGSNPPSYQSSEDVITINSRIRVKIEGCISQVSSIHAIGSIKEDYLGAI [K140N]: in data set [1], the “log2 fold change of mutant abundance” value came out at 0.0883. Also, the “NOISeq theta enrichment statistic” value in data set [2] was found to be 0.529.

With MFFIKDLSLNITLHPSFFGPRMKQYLKTKLLEEVEGSCTGKFGYILCVLDYDNIDIQRGRILPTDGSAEFNVKYRAVVFKPFKGEVVDGTVVSCSPHGFEVQVGPMKVFVTKHLMPQDLTFNAGSNPPSYQSSEDVITIKSRIRVKIEGCISQVSSIHAIGSIKEDYLGAI [Q96P], the “log2 fold change of mutant abundance” value in data set [1] was -0.00305. In addition, in data set [2], the “NOISeq theta enrichment statistic” value was -0.0179.

Take MFFIKDLSLNITLHPSFFGPRMKQYLKTKLLEEVEGSCTGKFGYILCVLDYDNIDIQRGRILPTDGSAEFNVKYRAVVFKPFKGEVVDGTVVSCSQHGFEVQVGPMKVFVTKHLMPTDLTFNAGSNPPSYQSSEDVITIKSRIRVKIEGCISQVSSIHAIGSIKEDYLGAI [Q117T]: in data set [1], the “log2 fold change of mutant abundance” value was -0.00439. Further, in data set [2], the “NOISeq theta enrichment statistic” value is -0.00487.

As for MFFIKDLSLNITLHPSFFGPRMKQYLKTKLLEEVEGSCTGKFGYILCVLDYDNIDIQRGRILPTDGSAEFNVKYRAVVFKPFKGEVVDGTVVSCSQHGFEVQVGPMKVFVTKHLMSQDLTFNAGSNPPSYQSSEDVITIKSRIRVKIEGCISQVSSIHAIGSIKEDYLGAI [P116S], in data set [1], the “log2 fold change of mutant abundance” value was -0.05. Further, in data set [2], the “NOISeq theta enrichment statistic” value is -0.129.

MFFIKDLSLNITLHPSFFGPRMKQYLKTKLLEEVEGSCTGKFGYILCVLDYDNIDIQRGRILPTDGSAEFNVKYRAVVFKPFKGEVVDGTVVSCSQHGFEVQVGPMKVFVTKHLMPQDLTFNAGSNPPSYQSSEDVITIKSRIRVKIEGCISQVSSIHAIGSIKEDYLGAT [I171T]: the “log2 fold change of mutant abundance” value in data set [1] is -0.101. In addition, the “NOISeq theta enrichment statistic” value in data set [2] is -0.194.

As for MFFIKDLSLNITLHPSFFGPRMKQYLKTKLLEEVEGSCTGKFGYILCVLDYDNIDIQRGRILPTDGSAEFNVKYRAVVFKPFKGEVVDGTVVSCSQHGFEVQVGPMKVFVTKHLMPQDLTFNAGSNPPSYQSSEDVITIKSRIRLKIEGCISQVSSIHAIGSIKEDYLGAI [V145L], in data set [1], the “log2 fold change of mutant abundance” value was -0.0502. Also, the “NOISeq theta enrichment statistic” value in data set [2] is -0.0484.

For the variant MFFIKDLSLNITLHPSFFGPRMKQYLKTKLLEEVEGSCTGKFGYILCVLDYDNIDIQRGRILPTDGSAEFNVKYRAVVFKPFKGEVVDGTVVSCSQHGFEVQVGPMKVFVTKHLMPQDLTFNAGSNPPSYQSSEDVITIKSRIRVKIEGCISQVSSIHAIGSIKEDDLGAI [Y167D], the “log2 fold change of mutant abundance” value in data set [1] was -0.141. Also, the “NOISeq theta enrichment statistic” value in data set [2] is -0.177.

Turning to MFFIKDLSLNITLHPSFFGPRMKQYLKTKLLEEVEGSCTGKFGYILCVLDYDNIDIQRGRILPTDGSAEFNVKYRAVVFKPFKGEVVDGTVVRCSQHGFEVQVGPMKVFVTKHLMPQDLTFNAGSNPPSYQSSEDVITIKSRIRVKIEGCISQVSSIHAIGSIKEDYLGAI [S93R], in data set [1], the “log2 fold change of mutant abundance” value is -0.0299. Besides, in data set [2], the “NOISeq theta enrichment statistic” value is -0.0232.

Take MFFIKDLSLNITLHPSFFGPRMKQYLKTKLLEEVEGSCTGKFGYILCVLDYDNIDIQRGRILPTDGSAEFNVKYRAVVFKPFKGEVVDGTVVSTSQHGFEVQVGPMKVFVTKHLMPQDLTFNAGSNPPSYQSSEDVITIKSRIRVKIEGCISQVSSIHAIGSIKEDYLGAI [C94T]: in data set [1], the “log2 fold change of mutant abundance” value came to 0.207. Besides, in data set [2], the “NOISeq theta enrichment statistic” value is 0.143.

On to MFFIKDLSLNITLHPSFFGPRMKQYLKTKLLEEVEGSCTGKFGYILCVLDYDNIDIQRGRILPTDGSAEFNVKYRAVVFKPFKGEVVDGTVVSCSQHGFEVQVGPMKVFVTKHLMPQDLTFNAGTNPPSYQSSEDVITIKSRIRVKIEGCISQVSSIHAIGSIKEDYLGAI [S125T], for which the “log2 fold change of mutant abundance” value in data set [1] amounted to 0.114. In addition, the “NOISeq theta enrichment statistic” value in data set [2] was determined as 0.614.

On to MFFIKDLSLNITLHPSFFGPRMKQYLKTKLLEEVEGSCTGKFGYILCVLDYDNIDIQRGRILPTDGSAEFNVKYRAVVFKPFKGEVVDGIVVSCSQHGFEVQVGPMKVFVTKHLMPQDLTFNAGSNPPSYQSSEDVITIKSRIRVKIEGCISQVSSIHAIGSIKEDYLGAI [T90I], for which the “log2 fold change of mutant abundance” value in data set [1] was -0.082. Besides, the “NOISeq theta enrichment statistic” value in data set [2] was -0.338.

For the variant MFFIKDLSLNITLHPSFFGPRMKQYLKTKLLEEVEGSCTGKFGYILCVLDYDNIDIQRGRILPTDGSAEFNVKYRAVVFKPFKGEVVDGTVVSCSQHGFEVLVGPMKVFVTKHLMPQDLTFNAGSNPPSYQSSEDVITIKSRIRVKIEGCISQVSSIHAIGSIKEDYLGAI [Q102L], the “log2 fold change of mutant abundance” value in data set [1] is 0.0405. The “NOISeq theta enrichment statistic” value in data set [2] amounted to 0.25.

For MFFIKDLSLNITLHPSFFGPRMKQYLKTKLLEEVEGSCTGKFGYILCVLDYDNIDIQRGRILPTDGSAEFNVKYRAVVFKPFKGEVVDGTVVSCSQHGFEVQVGPMKVFVTKHLMPQDLTFNAGSNPPSYQSSEDVITIKSRIMVKIEGCISQVSSIHAIGSIKEDYLGAI [R144M], the “log2 fold change of mutant abundance” value in data set [1] was determined as 0.911. Also, the “NOISeq theta enrichment statistic” value in data set [2] came out at 0.38.
